Results taken from the supplement of paper PMC10849652.
The other results are listed elsewhere or left out.

Sequences of proteins named here, by UniProt entry; tags and fusion partners are left off. A change or cut given only in a name is not applied to a line headed by its entry.
UniProt Q13601: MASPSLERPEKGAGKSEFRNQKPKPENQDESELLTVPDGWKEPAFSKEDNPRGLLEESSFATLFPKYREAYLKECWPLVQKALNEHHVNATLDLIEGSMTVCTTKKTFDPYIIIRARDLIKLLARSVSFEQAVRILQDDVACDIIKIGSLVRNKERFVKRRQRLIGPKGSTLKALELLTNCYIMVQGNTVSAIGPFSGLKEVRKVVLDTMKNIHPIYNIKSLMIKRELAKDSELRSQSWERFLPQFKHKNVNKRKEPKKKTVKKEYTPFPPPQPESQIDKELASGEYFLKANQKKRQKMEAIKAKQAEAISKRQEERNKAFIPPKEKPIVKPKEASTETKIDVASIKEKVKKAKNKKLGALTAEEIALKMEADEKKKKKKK
UniProt Q969F8, whole entry, looked up: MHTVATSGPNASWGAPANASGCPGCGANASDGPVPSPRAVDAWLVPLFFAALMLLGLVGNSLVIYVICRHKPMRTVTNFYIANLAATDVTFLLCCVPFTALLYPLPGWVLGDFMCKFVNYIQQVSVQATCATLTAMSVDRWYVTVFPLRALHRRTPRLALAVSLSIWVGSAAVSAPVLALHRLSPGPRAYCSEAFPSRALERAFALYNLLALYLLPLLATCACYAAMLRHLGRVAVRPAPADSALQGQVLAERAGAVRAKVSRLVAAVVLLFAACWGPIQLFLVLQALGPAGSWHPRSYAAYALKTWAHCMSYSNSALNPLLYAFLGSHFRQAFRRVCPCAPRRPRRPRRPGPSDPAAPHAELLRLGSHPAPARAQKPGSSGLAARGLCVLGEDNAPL
UniProt Q96L93: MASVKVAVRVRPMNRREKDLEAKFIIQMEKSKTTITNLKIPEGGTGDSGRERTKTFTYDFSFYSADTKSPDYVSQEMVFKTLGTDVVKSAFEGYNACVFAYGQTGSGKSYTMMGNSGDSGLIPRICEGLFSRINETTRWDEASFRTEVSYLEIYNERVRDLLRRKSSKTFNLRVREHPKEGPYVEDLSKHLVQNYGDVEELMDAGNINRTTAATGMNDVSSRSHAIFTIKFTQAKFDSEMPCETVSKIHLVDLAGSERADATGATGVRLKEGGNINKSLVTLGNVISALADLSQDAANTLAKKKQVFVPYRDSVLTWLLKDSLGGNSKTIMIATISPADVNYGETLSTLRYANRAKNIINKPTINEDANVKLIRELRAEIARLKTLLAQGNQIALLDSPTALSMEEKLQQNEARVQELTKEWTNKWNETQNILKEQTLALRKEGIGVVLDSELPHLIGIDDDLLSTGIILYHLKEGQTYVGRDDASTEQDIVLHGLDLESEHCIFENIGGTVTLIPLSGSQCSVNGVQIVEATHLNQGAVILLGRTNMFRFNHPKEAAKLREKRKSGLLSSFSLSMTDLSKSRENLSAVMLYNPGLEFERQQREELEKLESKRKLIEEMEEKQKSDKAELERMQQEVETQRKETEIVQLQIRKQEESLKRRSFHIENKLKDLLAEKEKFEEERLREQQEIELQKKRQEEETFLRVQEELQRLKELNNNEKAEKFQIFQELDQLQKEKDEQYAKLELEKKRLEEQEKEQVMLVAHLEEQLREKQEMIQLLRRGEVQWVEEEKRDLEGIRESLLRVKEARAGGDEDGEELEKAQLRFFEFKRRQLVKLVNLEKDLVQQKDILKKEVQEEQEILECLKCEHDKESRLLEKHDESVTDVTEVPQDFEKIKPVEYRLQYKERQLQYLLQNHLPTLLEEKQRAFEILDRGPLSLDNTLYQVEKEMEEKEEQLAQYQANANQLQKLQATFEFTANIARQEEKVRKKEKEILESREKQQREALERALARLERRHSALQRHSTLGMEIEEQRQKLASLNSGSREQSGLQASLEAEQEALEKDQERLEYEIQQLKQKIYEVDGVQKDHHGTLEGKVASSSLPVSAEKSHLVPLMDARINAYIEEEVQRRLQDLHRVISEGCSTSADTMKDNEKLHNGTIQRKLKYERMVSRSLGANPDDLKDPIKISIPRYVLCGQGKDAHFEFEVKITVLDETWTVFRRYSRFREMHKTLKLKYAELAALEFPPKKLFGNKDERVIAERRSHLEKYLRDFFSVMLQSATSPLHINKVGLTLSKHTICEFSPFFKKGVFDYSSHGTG
UniProt Q8N4N3: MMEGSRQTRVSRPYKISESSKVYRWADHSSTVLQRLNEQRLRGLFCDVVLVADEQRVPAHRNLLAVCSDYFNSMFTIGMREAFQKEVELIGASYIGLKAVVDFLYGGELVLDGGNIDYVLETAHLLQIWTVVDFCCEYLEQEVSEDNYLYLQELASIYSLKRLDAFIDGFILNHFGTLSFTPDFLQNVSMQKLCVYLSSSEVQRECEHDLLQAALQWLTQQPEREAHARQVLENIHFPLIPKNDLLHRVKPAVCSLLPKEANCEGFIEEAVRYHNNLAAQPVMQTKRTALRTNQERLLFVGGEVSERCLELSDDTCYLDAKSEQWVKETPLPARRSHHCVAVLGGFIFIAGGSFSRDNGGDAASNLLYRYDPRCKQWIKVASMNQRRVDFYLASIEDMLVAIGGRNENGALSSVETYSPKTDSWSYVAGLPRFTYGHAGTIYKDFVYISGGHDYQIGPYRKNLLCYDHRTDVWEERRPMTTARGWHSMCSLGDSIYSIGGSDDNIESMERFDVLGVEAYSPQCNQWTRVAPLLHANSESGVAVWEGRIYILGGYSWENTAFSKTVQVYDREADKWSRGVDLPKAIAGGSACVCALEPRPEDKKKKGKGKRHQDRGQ
UniProt O43896: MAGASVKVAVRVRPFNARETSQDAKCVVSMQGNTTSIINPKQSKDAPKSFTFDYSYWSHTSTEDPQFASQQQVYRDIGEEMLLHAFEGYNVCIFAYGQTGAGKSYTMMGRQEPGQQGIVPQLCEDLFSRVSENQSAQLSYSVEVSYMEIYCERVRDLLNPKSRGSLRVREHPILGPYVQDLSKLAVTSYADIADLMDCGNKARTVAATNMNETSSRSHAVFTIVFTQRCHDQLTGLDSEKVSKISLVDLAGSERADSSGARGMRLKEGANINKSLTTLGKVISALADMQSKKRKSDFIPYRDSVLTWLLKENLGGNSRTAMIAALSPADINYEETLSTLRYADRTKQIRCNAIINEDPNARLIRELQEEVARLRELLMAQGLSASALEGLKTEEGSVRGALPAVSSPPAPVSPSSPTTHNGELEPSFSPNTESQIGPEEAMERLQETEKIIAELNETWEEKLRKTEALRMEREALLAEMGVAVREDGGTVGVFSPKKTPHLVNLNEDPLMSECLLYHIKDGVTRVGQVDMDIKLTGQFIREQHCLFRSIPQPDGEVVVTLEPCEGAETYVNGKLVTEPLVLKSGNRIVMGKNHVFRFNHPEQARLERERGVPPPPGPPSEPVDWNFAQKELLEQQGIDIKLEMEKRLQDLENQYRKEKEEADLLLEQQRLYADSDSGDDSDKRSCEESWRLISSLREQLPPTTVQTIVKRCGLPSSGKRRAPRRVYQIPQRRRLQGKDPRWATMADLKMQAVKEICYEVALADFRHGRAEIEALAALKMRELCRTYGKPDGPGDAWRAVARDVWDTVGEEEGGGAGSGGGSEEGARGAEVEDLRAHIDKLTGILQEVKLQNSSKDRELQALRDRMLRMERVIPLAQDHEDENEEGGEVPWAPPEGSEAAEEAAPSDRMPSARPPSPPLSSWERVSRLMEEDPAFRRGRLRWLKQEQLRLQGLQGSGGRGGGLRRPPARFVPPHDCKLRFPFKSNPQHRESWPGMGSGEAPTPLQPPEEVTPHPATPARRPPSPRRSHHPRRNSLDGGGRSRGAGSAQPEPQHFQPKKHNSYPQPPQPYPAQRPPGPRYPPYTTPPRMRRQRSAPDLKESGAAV
UniProt Q8NA19: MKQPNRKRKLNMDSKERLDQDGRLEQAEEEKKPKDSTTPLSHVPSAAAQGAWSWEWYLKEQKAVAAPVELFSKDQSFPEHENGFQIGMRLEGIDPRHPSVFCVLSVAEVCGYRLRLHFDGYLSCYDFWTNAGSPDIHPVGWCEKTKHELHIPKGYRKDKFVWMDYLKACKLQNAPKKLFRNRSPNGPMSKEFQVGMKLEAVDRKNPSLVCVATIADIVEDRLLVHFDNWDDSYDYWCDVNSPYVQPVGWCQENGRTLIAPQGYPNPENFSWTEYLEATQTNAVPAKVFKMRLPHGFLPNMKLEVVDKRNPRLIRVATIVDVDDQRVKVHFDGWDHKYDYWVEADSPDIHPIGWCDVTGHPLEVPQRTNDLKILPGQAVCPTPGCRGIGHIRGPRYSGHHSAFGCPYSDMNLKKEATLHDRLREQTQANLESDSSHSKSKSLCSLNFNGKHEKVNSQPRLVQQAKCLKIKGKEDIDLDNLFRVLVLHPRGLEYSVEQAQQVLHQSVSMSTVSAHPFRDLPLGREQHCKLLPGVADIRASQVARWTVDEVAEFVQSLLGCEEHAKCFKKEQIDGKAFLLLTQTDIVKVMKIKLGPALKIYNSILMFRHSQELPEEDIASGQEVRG
UniProt Q6PID8: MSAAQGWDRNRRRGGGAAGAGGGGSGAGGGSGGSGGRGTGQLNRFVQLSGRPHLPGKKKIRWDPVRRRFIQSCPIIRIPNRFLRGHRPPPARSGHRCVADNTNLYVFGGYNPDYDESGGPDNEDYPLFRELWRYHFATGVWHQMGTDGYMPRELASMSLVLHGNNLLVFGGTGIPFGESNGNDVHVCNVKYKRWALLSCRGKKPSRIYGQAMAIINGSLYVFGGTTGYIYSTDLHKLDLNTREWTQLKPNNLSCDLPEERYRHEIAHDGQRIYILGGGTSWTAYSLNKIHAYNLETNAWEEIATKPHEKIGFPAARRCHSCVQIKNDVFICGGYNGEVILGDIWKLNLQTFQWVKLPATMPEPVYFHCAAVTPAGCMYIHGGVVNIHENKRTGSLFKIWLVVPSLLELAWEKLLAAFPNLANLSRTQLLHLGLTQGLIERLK
UniProt Q9BVV6: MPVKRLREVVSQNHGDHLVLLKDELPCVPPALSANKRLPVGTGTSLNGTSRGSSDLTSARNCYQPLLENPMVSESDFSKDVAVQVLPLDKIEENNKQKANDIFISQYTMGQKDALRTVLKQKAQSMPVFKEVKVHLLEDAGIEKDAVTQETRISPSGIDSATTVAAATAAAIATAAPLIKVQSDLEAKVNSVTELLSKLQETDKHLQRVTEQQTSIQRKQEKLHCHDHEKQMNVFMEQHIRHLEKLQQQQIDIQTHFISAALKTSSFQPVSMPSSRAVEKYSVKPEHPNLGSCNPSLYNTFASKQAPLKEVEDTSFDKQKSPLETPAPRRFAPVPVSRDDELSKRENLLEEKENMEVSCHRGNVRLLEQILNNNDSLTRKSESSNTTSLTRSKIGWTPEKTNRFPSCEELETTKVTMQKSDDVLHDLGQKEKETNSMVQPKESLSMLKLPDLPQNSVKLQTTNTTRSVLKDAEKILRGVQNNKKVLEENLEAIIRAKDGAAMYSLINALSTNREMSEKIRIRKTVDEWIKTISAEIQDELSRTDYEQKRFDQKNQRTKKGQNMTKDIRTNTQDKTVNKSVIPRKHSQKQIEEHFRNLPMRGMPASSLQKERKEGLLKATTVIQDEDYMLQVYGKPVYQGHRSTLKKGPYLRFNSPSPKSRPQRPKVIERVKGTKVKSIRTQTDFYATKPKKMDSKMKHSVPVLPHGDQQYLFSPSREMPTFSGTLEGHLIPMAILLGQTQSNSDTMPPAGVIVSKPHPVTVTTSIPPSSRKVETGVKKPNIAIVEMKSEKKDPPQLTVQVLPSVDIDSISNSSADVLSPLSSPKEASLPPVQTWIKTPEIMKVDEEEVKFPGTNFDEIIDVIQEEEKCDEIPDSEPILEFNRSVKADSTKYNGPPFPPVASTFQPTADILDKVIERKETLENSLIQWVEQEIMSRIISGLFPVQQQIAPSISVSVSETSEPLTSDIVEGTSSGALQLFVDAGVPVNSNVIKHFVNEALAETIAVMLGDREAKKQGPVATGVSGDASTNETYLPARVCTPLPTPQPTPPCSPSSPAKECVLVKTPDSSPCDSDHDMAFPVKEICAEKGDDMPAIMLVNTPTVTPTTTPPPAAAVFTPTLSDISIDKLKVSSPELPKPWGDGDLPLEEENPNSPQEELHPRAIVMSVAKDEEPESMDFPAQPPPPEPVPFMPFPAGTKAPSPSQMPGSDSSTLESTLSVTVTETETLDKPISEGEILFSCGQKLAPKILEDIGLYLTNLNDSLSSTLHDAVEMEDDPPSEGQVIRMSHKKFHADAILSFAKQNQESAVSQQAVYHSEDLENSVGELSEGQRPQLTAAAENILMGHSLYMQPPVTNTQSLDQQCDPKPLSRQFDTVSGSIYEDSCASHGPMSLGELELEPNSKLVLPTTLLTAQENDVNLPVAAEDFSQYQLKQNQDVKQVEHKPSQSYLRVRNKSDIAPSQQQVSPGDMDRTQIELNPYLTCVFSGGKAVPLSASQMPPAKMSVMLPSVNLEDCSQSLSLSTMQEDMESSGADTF

How the values were obtained:
Assay in all cases: log2 fold change, soluble protein after heating vs DMSO (PISA); higher = thermal stabilisation; K562 lysate, 10 uM; active = over 0.2 and 3.5 SD of the protein, either way, in both replicates (recomputed)
nilotinib = compound: Cc1cn(-c2cc(NC(=O)c3ccc(C)c(Nc4nccc(-c5cccnc5)n4)c3)cc(C(F)(F)F)c2)cn1 [nilotinib]
Summary of the method: (§1)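 Pellets of K562 cells were dounce-homogenised in PBS pH 7.4 with 1 mM MgCl2, and the crude extract was held at 1 mg/mL protein for a 30 min treatment with 10 μM compound. Aliquots were heated for 3 min over 48°C-58°C and pooled before NP-40 was added to 0.5% at 4°C. The supernatant from 21,000xg for 90 min was quantified by TMTpro 16plex LC-MS/MS with channel sums equalised. Values are reported from duplicates as log-two fold change in thermal stability relative to solvent controls.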

[1] = compound: Cc1nc(Nc2n[nH]c3c2CN(C(=O)N[C@H](CN(C)C)c2ccccc2)C3(C)C)c2sccc2n1
Summary of the method: as §1

dasatinib = compound: Cc1nc(Nc2ncc(C(=O)Nc3c(C)cccc3Cl)s2)cc(N2CCN(CCO)CC2)n1 [dasatinib]
Summary of the method: as §1

[2] = compound: Cc1ncc(-c2ccnc(Nc3ccc(S(C)(=O)=O)cc3)n2)n1C(C)C
Summary of the method: as §1

[3] = compound: Cn1cc(-c2ccc3c(c2)CCN3C(=O)Cc2cccc(C(F)(F)F)c2)c2c(N)ncnc21
Summary of the method: as §1

quisinostat = compound: Cn1cc(CNCC2CCN(c3ncc(C(=O)NO)cn3)CC2)c2ccccc21 [quisinostat]
Summary of the method: as §1

tipifarnib = compound: Cn1cncc1[C@@](N)(c1ccc(Cl)cc1)c1ccc2c(c1)c(-c1cccc(Cl)c1)cc(=O)n2C [tipifarnib]
Summary of the method: as §1

[4] = compound: NC(=O)Nc1cc(-c2cccc(F)c2)sc1C(=O)N[C@H]1CCCNC1
Summary of the method: as §1

[5] = compound: NC(=O)c1cnc(N[C@@H]2CCCC[C@@H]2N)nc1Nc1cccc(-n2nccn2)c1
Summary of the method: as §1

[6] = compound: NC1(c2ccc(-c3nc4ccn5c(=O)[nH]nc5c4cc3-c3ccccc3)cc2)CCC1
Summary of the method: as §1

Row | Target | log2 fold change (nilotinib) | log2 fold change [1] | log2 fold change (dasatinib) | log2 fold change [2] | log2 fold change [3] | log2 fold change (quisinostat) | log2 fold change (tipifarnib) | log2 fold change [4] | log2 fold change [5] | log2 fold change [6]
1 | KPNA2 (UniProt P52292) | inactive: -0.051 | inactive: -0.002 | inactive: -0.041 | inactive: 0.018 | inactive: 0.039 | inactive: -0.01 | inactive: -0.023 | inactive: 0.026 | inactive: 0.039 | inactive: -0.05
2 | KMT2A isoform 3 (UniProt Q03164) | inactive: 0.098 | active: -0.428 | inactive: 0.017 | inactive: 0.154 | inactive: 0.056 | inactive: -0.156 | inactive: -0.178 | inactive: 0.032 | inactive: 0.133 | inactive: -0.037
3 | KLF16 (UniProt Q9BXK1) | inactive: 0.048 | inactive: -0.078 | inactive: 0.009 | inactive: 0.018 | inactive: -0.05 | inactive: -0.012 | inactive: 0.037 | inactive: 0.001 | inactive: 0.028 | inactive: 0.027
4 | KRR1 (UniProt Q13601) | inactive: -0.057 | inactive: 0.058 | inactive: -0.014 | inactive: 0.006 | inactive: 0.012 | active: -0.336 | inactive: -0.039 | inactive: 0.018 | inactive: 0.022 | inactive: -0.08
5 | KISS1R (UniProt Q969F8) | inactive: 0.042 | inactive: -0.099 |  | inactive: -0.005 |  | inactive: -0.262 | inactive: -0.014 | inactive: 0.053 |  | 
6 | KDM5C (UniProt P41229) | inactive: -0.021 | inactive: -0.005 | inactive: -0.032 | inactive: 0.022 | inactive: 0.033 | inactive: -0.084 | inactive: 0.037 | inactive: 0.032 | inactive: -0.037 | inactive: -0.032
7 | KIF16B isoform 2 (UniProt Q96L93) | inactive: 0.134 | inactive: 0 | inactive: -0.264 | inactive: -0.209 | inactive: -0.042 | inactive: -0.011 | inactive: 0.005 | inactive: -0.012 |  | inactive: 0.038
8 | KDM4A (UniProt O75164) | inactive: -0.065 | inactive: -0.019 | inactive: -0.011 | inactive: -0.034 | inactive: 0.007 | inactive: -0.086 | inactive: -0.037 | inactive: 0.022 |  | inactive: -0.036
9 | KLHL36 (UniProt Q8N4N3) | inactive: 0.012 | inactive: -0.104 | inactive: -0.021 | inactive: 0.027 | inactive: 0.049 | inactive: 0.043 | inactive: 0.067 | inactive: 0.007 | inactive: -0.023 | inactive: -0.014
10 | KRI1 (UniProt Q8N9T8) | inactive: -0.099 | inactive: 0.02 | inactive: -0.025 | inactive: 0 | inactive: -0.014 | inactive: -0.125 | inactive: -0.073 | inactive: -0.006 |  | inactive: 0.06
11 | KIF1C (UniProt O43896) | inactive: -0.076 | inactive: -0.048 |  | inactive: 0.173 |  | inactive: -0.11 | inactive: 0.129 | inactive: 0.165 | inactive: 0.001 | inactive: -0.102
12 | KMT2E (UniProt Q8IZD2) | inactive: -0.05 | inactive: 0.01 | inactive: 0.016 | inactive: 0.019 | inactive: -0.045 | inactive: -0.282 | inactive: -0.102 | inactive: 0.024 |  | inactive: 0.028
13 | KDM4C (UniProt Q9H3R0) | inactive: 0.069 | inactive: -0.176 | inactive: -0.072 | inactive: -0.156 | inactive: 0.02 |  | inactive: -0.183 |  |  | 
14 | KIF20B isoform 2 (UniProt Q96Q89) | inactive: 0.092 | inactive: -0.019 | inactive: 0.067 | inactive: -0.112 | inactive: 0.218 | inactive: -0.214 | inactive: -0.07 | inactive: -0.01 |  | inactive: -0.219
15 | KLC4 isoform 3 (UniProt Q9NSK0) | inactive: -0.023 | inactive: 0.047 | inactive: -0.013 | inactive: 0.089 | inactive: 0.048 | inactive: -0.018 | inactive: -0.015 | inactive: 0.01 | inactive: 0.021 | inactive: -0.003
16 | L3MBTL4 (UniProt Q8NA19) | inactive: -0.048 | inactive: 0.054 |  | inactive: 0.141 |  | inactive: -0.109 | inactive: 0.02 | inactive: 0.026 | inactive: -0.03 | 
17 | KIF21A (UniProt H0YI78) | inactive: 0.067 | inactive: -0.005 | inactive: 0.044 | inactive: 0.143 | inactive: 0.055 |  | inactive: -0.069 |  | inactive: 0.104 | inactive: 0.082
18 | KLHDC10 (UniProt Q6PID8) | inactive: 0.029 | inactive: -0.018 | inactive: 0.134 | inactive: -0.001 | inactive: -0.037 | inactive: -0.029 | inactive: 0.023 | inactive: 0.051 |  | inactive: 0.07
19 | KHNYN (UniProt O15037) | inactive: 0.096 | inactive: 0.094 | inactive: 0.011 | inactive: -0.082 | inactive: 0.023 | inactive: -0.054 | inactive: -0.115 | inactive: -0.001 |  | inactive: 0.088
20 | KMT2C isoform 3 (UniProt Q8NEZ4) | inactive: -0.09 | inactive: -0.073 | inactive: -0.035 | inactive: 0.072 | inactive: 0.044 | inactive: -0.113 | inactive: -0.076 | inactive: 0.077 | inactive: -0.015 | inactive: 0.021
21 | KLC3 isoform 3 (UniProt Q6P597) | inactive: -0.193 | inactive: 0.006 |  | inactive: -0.036 |  | inactive: -0.075 | inactive: 0.034 | inactive: 0.061 | inactive: 0 | 
22 | KIAA0586 isoform 3 (UniProt Q9BVV6) | inactive: -0.044 | inactive: 0.073 | inactive: -0.132 | inactive: -0.02 | inactive: -0.05 | inactive: 0.014 | inactive: -0.152 | inactive: 0.102 |  | inactive: -0.024
23 | KIF26A (UniProt Q9ULI4) | inactive: 0.035 | inactive: -0.013 | inactive: 0.003 | inactive: 0.01 | inactive: 0.014 | inactive: -0.092 | inactive: 0.226 | inactive: -0.078 |  | inactive: -0.091

2 entries picked at random from the list so far, as already listed:
Row | Target | log2 fold change (nilotinib) | log2 fold change [1] | log2 fold change (dasatinib) | log2 fold change [2] | log2 fold change [3] | log2 fold change (quisinostat) | log2 fold change (tipifarnib) | log2 fold change [4] | log2 fold change [5] | log2 fold change [6]
7 | KIF16B isoform 2 (UniProt Q96L93) | inactive: 0.134 | inactive: 0 | inactive: -0.264 | inactive: -0.209 | inactive: -0.042 | inactive: -0.011 | inactive: 0.005 | inactive: -0.012 |  | inactive: 0.038
17 | KIF21A (UniProt H0YI78) | inactive: 0.067 | inactive: -0.005 | inactive: 0.044 | inactive: 0.143 | inactive: 0.055 |  | inactive: -0.069 |  | inactive: 0.104 | inactive: 0.082
